Measured values: the supplement of paper PMC10338343
± gives the standard deviation. Only a part is listed here, and it is no random draw. The uncertainty is large for many entries. Some of the results follow.

Tests used:
[1] = test system: MILI (PIWIL2) piRISC loaded with L1MC piRNA (26 nt); assay: pre-steady-state target cleavage rate (min^-1); higher = faster piRNA-guided slicing of the target; conditions: guide: L1MC piRNA 5'p-UAACUAAAUACUAUGCAAGCUGUAGG; auxiliary factor: none (no GTSF1)
In short: (§1)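 The pre-steady-state cleavage rate was obtained by Cleave-'n-Seq with a burst-and-steady-state fit. A transcribed, DNA-blocked target RNA library (0.1 nM) was mixed with 1 nM active affinity-purified piRISC carrying one synthetic guide, with or without 500 nM GTSF1 partner protein, in HEPES–potassium acetate buffer at 33 °C for 0–8 or 0–960 min. Uncleaved targets were sequenced and normalised to depth and to weakly complementary targets, with three trials pooled and k3 capped at 0.0001 min^-1.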

[2] = test system: MIWI (PIWIL1) piRISC loaded with L1MC piRNA (30 nt); assay: as above; conditions: guide: L1MC piRNA 5'p-UAACUAAAUACUAUGCAAGCUGUAGGUCCU
In short: as §1

[3] = test system: EfPiwi piRISC loaded with L1MC piRNA (26 nt); assay: pre-steady-state target cleavage rate (min^-1); guide: L1MC piRNA 5'p-UAACUAAAUACUAUGCAAGCUGUAGG; MIWI and MILI are mouse PIWI proteins and EfPiwi is from a freshwater sponge; tags in brackets are library labels; higher = faster piRNA-guided slicing of the target
In short: as §1

[4] = auxiliary factor: none (no GTSF1)
[5] = auxiliary factor: 500 nM Ephydatia muelleri Gtsf1
[6] = auxiliary factor: none (no Gtsf1)

Sequence | pre-steady-state target cleavage rate [1] | pre-steady-state target cleavage rate [2, 4] | pre-steady-state target cleavage rate [3, 5] | pre-steady-state target cleavage rate [3, 6] | pre-steady-state target cleavage rate ([2]; auxiliary factor: 500 nM mouse GTSF1)
UCCUGGAUGUCGAAGCAUACUAUUUUGUUA | 0.000195 ± 0.021 | 0.000272 ± 0.015 | < 0.0001 | – | –
UCCUGGUACUCGUUGCAUAGUAUUUAGUAA | 0.00168 ± 0.005 | 0.00163 ± 0.005 | 0.000613 ± 0.0067 | – | –
UCCUGGAUGUCGAACCAUUGUAUUUAGAUA | 0.000206 ± 0.016 | 0.000405 ± 0.011 | 0.000214 ± 0.014 | – | –
UCCUGCUACAGCUUCCAUACUAUUUAGUUA | 0.000495 ± 0.0086 | 0.000933 ± 0.0067 | 0.00206 ± 0.0022 | – | –
UCCUCCUACAGCAAGCAUAGUAUUUACAAA | 0.00122 ± 0.0045 | 0.00117 ± 0.006 | 0.00211 ± 0.0045 | – | –
UCCUGGAUGUCCUUGCAUACAUUUUAGUAA | 0.000803 ± 0.0087 | 0.000477 ± 0.014 | 0.000215 ± 0.012 | – | –
UCCUGGAUGAGGAUGCAUAGUAUUUAGAAA | 0.00166 ± 0.0032 | 0.0013 ± 0.006 | 0.0024 ± 0.0024 | – | –
UCCUGCUACAGCUUGCAUAGUUUUUUCAAA | 0.00174 ± 0.0039 | 0.00153 ± 0.005 | – | 0.000567 ± 0.011 | –
UCCUCCUACAGCUUCCAUAGUAUUUACAAA | 0.000447 ± 0.012 | 0.000874 ± 0.0074 | 0.00265 ± 0.0026 | – | –
UCCUCCUACAGCUUCCAUAGAAUUUAGUUA | 0.000691 ± 0.0074 | 0.00131 ± 0.0034 | 0.00186 ± 0.0019 | – | –
UCCUGCUACAGCUUGCAUAGAUAUUUCAAA | 0.000684 ± 0.0095 | 0.000251 ± 0.013 | 0.00184 ± 0.0032 | – | –
UCCUCCUACAGCUUCGUUAGUAUUUAGAAA | 0.00038 ± 0.014 | 0.000269 ± 0.0097 | 0.000259 ± 0.0097 | – | –
UCCUGGAUGUCGAACCAAAGUAUUUAGAUA | < 0.0001 | 0.000332 ± 0.014 | 0.00023 ± 0.017 | – | –
UCCUGGUAGAGCUUGCAUAGUAUUUUCAAA | 0.00111 ± 0.0056 | 0.00315 ± 0.0039 | 0.00153 ± 0.0036 | – | –
UCCUCCUACAGCUUCCAUAGUAUUUAGAUA | 0.000242 ± 0.017 | 0.000983 ± 0.0074 | 0.00393 ± 0.0021 | – | –
UCCUGGAACAGGUUGCAUAGUAUUUUCAAA | 0.00139 ± 0.0044 | 0.00151 ± 0.0051 | 0.00196 ± 0.0027 | – | –
UCCUGGAUGUCCUUGCAUAGUUAAUAGUUA | 0.0025 ± 0.0026 | 0.00178 ± 0.0033 | 0.00121 ± 0.0062 | – | –
UCCUGGAUGUCGAUGAAUAGUAUUUAGUUA | 0.000617 ± 0.0065 | 0.000335 ± 0.016 | 0.0003 ± 0.012 | – | –
UCCUGGUACAGCUUGCAUAGUAUUAACAAA | 0.00206 ± 0.0033 | 0.00203 ± 0.003 | 0.00261 ± 0.0023 | – | –
UCCUGGAUGUCCUUGCAAUCAUAAAUCAAA [g14:g19:cont:t1A] | 0.000218 ± 0.025 | 0.000395 ± 0.014 | – | < 0.0001 | –
UCCUGGAUGUCCUUGGUAAGUAUUUAGUAA | 0.000448 ± 0.011 | 0.000919 ± 0.0084 | 0.00113 ± 0.0085 | – | –
UCCUGGAACACGAUGCAUAGUAUUUUCAAA | 0.000939 ± 0.0061 | 0.00101 ± 0.0099 | 0.000607 ± 0.0058 | – | –
UCCUGGAUGAGCUUCCAUAGUAUUUAGUAA | 0.000897 ± 0.0071 | 0.00138 ± 0.0055 | 0.00253 ± 0.0019 | – | –
UCCUGGAUCAGCUUGCUUAGUAUUUUCAAA | 0.000602 ± 0.0095 | 0.00115 ± 0.0062 | 0.00161 ± 0.004 | – | –
UCCUGGAUCAGCUUGGAUAGUAUUUACAAA | 0.000265 ± 0.023 | 0.000759 ± 0.0082 | 0.000712 ± 0.005 | – | –
UCCUGGAUCAGCUUGCAUUCAAUUUACAAA | 0.000271 ± 0.019 | 0.000714 ± 0.0067 | 0.000383 ± 0.0082 | – | –

Three records picked at random from those above, as already listed:
Sequence | pre-steady-state target cleavage rate [1] | pre-steady-state target cleavage rate [2, 4] | pre-steady-state target cleavage rate [3, 5] | pre-steady-state target cleavage rate [3, 6] | pre-steady-state target cleavage rate ([2]; auxiliary factor: 500 nM mouse GTSF1)
UCCUCCUACAGCAAGCAUAGUAUUUACAAA | 0.00122 ± 0.0045 | 0.00117 ± 0.006 | 0.00211 ± 0.0045 | – | –
UCCUGGAUGUCCUUGGUAAGUAUUUAGUAA | 0.000448 ± 0.011 | 0.000919 ± 0.0084 | 0.00113 ± 0.0085 | – | –
UCCUGGAUGUCCUUGCAAUCAUAAAUCAAA [g14:g19:cont:t1A] | 0.000218 ± 0.025 | 0.000395 ± 0.014 | – | < 0.0001 | –

(further entries)

Sequence | pre-steady-state target cleavage rate [1] | pre-steady-state target cleavage rate [2, 4] | pre-steady-state target cleavage rate [3, 5] | pre-steady-state target cleavage rate [3, 6] | pre-steady-state target cleavage rate ([2]; auxiliary factor: 500 nM mouse GTSF1)
UCCUGGAUGUCCUUGCUAUAGUAUUUAGUUA | 0.000735 ± 0.0057 | 0.00111 ± 0.0057 | 0.000517 ± 0.0068 | – | –
UCCUGGAUGUCGAAGCAAGUAUUUAGUUA | 0.000657 ± 0.0063 | 0.0012 ± 0.006 | 0.0001 ± 0.039 | – | –
UCCUCCUACAGCUUGCAUAGGUAUUUAGUUA | 0.00373 ± 0.0024 | 0.00109 ± 0.0072 | 0.0036 ± 0.0026 | – | –
UCCUGGUACAGCUUGCAUACAUUUUAGUAA | 0.00208 ± 0.0056 | 0.000273 ± 0.014 | 0.000215 ± 0.027 | – | –
UCCUGGAUGUCGAAGCAUACAAUUUAGUUA | 0.000509 ± 0.0083 | 0.000597 ± 0.0097 | 0.000173 ± 0.015 | – | –
UCCUGGAUGAGCUUCGAUAGUAUUUACAAA | 0.000358 ± 0.017 | 0.000309 ± 0.012 | 0.000413 ± 0.01 | – | –
UCCUGGUACAGCUUCCAUAGUAUUUAGUUA | 0.00214 ± 0.0047 | 0.00235 ± 0.0026 | 0.00258 ± 0.0017 | – | –
UCCUGGAUGUCCUUGCUUAGUAUUUAGUAA | 0.00199 ± 0.0031 | 0.0016 ± 0.0032 | 0.000422 ± 0.0085 | – | –
UCCUGCUACAGCUUGCAUACAAUUUUCAAA | 0.00107 ± 0.0054 | 0.000787 ± 0.011 | 0.00133 ± 0.0054 | – | –
UCCUGGAUGUGCUUGCAUAGUAAAUAGAAA | 0.000468 ± 0.014 | 0.000614 ± 0.014 | 0.000436 ± 0.011 | – | –
UCCUGGAUGAGCAACCAUAGUAUUUAGUAA | 0.00093 ± 0.0067 | 0.000554 ± 0.011 | – | 0.000635 ± 0.013 | –
UCCUGCUACAGGAUGCAUAGUAUUUUCAAA | 0.000457 ± 0.011 | 0.000435 ± 0.015 | 0.000766 ± 0.003 | – | –
UCCUGGAUCAGCUUCCAUAGUUUUUAGUUA | 0.000419 ± 0.015 | 0.000647 ± 0.0093 | 0.000603 ± 0.0063 | – | –
UCCUGGAACAGCUUCCAUAGUAAUUAGUUA | 0.000798 ± 0.0067 | 0.00177 ± 0.0033 | 0.00201 ± 0.0027 | – | –
UCCUGGAUGAGCUUGCAUAGUUAUUAGAAA | 0.000886 ± 0.0068 | 0.00108 ± 0.0066 | 0.00178 ± 0.0044 | – | –
UCCUCCUACAGCUUCCAUAGUUUUUAGUUA | 0.000821 ± 0.0059 | 0.00169 ± 0.0025 | 0.00144 ± 0.002 | – | –
UCCUGGAUGUCGAUGCAUAGUAUAAUGUUA | 0.0022 ± 0.0036 | 0.000605 ± 0.013 | 0.000274 ± 0.0091 | – | –
UCCUGGAUGUCGAACGUAUGUAUUUUAGUUA | 0.000222 ± 0.021 | – | < 0.0001 | – | < 0.0001
UCCUGGAUGUCGAACCAAAGUAUUAAGUUA | 0.000184 ± 0.033 | 0.000543 ± 0.012 | 0.000103 ± 0.03 | – | –
UCCUGCUACAGCUUGCAUAGUUUUUACAAA | 0.00123 ± 0.0047 | 0.00234 ± 0.0037 | 0.00339 ± 0.0026 | – | –
UCCUGGAUGUCGAACGAUCAGUAUUUAGUUA | 0.000173 ± 0.023 | 0.000392 ± 0.015 | 0.00014 ± 0.021 | – | –
UCCUGGAUGUCCUUCCAUAGUAUUUUGUUA | 0.000502 ± 0.011 | 0.000534 ± 0.011 | 0.000211 ± 0.014 | – | –
UCCUGCUAGUCCUUGCAUAGUAUUUAGAAA | 0.00104 ± 0.005 | 0.00155 ± 0.004 | 0.00294 ± 0.0025 | – | –
UCCUGGAUCAGCUUGCAUAGUAAUUACAAA | 0.0015 ± 0.0043 | 0.00148 ± 0.0049 | 0.00172 ± 0.0032 | – | –
UCCUGGAACAGCUUCCAUAGUAUUUAGAAA | 0.000462 ± 0.014 | 0.000867 ± 0.0082 | 0.00411 ± 0.0022 | – | –
